Measured values as given in PubChem BioAssay AID504467 (National Center for Advancing Translational Sciences (NCATS), 2011).
Out of some 330,000 compounds screened, about 7,700 (2.3%) were called active. This list was built around the results that the source calls inconclusive (neither active nor inactive); the mix of calls is not that of the screen. Calls follow the shape of the dose curve; as a rule, active = well fitted inhibition curve with a large enough effect; inconclusive = small, poorly fitted or top-dose-only effect, or effect the other way; inactive = flat fitted curve, though single readings scatter. Potencies beside an inconclusive call are fits to weak or partial responses and may not hold up.

Test: qHTS screen for small molecules that inhibit ELG1-dependent DNA repair in human embryonic kidney (HEK293T) cells expressing luciferase-tagged ELG1; also: nearly all actives have a fitted effect of over 55% in size
Conditions: HEK293T ELG1-luciferase reporter, luminescence, 16 h, DNA damage induced by 5-fluorouridine; activity change, negative = inhibition: at 46.1 µM (top of the series)
Method in brief: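 Quantitative HTS, concentration-response format. 2,000 cells/well co-treated with 5-fluorouridine and compound, 16 hr in 5% CO2 at 37 °C; ONE-Glo luminescence read after 30 min.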
% is scaled to controls: 0 for no effect and ±100 for the full control effect; potency is read from the fitted curve at half-maximal effect.

Row | SMILES | Potency | activity change, negative = inhibition
1 | COc1ccc(C(=O)N2CCc3cc(OC)c(OC)cc3C2c2ccc(OC)c(OC)c2)cc1OC (stereo not given) | active: 3.66 µM | 
2 | CCOC(=O)c1cccc(C2=CC(=O)C[C@H](c3ccc(OC)cc3)C2)c1 | inconclusive: 0.411 µM [activator, single point] | 
3 | CCn1ccnc1CN(C)Cc1cn(-c2cccc(C)c2)nc1-c1cccc(F)c1 | inconclusive: 18.3 µM [inhibitor, single point] | 
4 | CCOC(=O)C1CCCN(S(=O)(=O)c2ccc3ccccc3c2)C1 (stereo not given) | inconclusive: 20.6 µM [inhibitor, single point] | 
5 | COc1ccccc1NC(=O)Cn1cnc2c(oc3nc4c(cc32)CCCC4)c1=O |  | inactive: -3.05%
6 | CC(=O)C1=C(O)C(=O)N(CCO)C1c1ccccc1 (stereo not given) |  | inactive: 9.66%
7 | COc1ccc(C[C@H]2COC(=O)[C@@H]2Cc2ccc(OC3OC(CO)C(O)C(O)C3O)c(OC)c2)cc1OC (stereo not given in full) |  | inactive: -6.74%
8 | O=C(c1cc2c(s1)-c1ccccc1S(=O)(=O)C2)N1CCN(Cc2ccccc2)CC1 | active: 13 µM | 
9 | CCCCC(=O)Nc1ccccc1N1CCN(c2ccccc2)CC1 | inconclusive: 29.1 µM [inhibitor, single point] | 
10 | O=C(N/N=C/c1cccs1)c1ccc(NC(=O)c2ccccc2Cl)cc1 | inconclusive: 23.1 µM [inhibitor, single point] | 
11 | COC(=O)[C@@]1(Cc2ccc(OC)cc2)[C@@H]2C(=CC(=O)[C@H]2CC(=O)C(=O)N2CCCC2)CN1C(=O)c1ccccc1 | active: 14.6 µM | 
12 | COc1ccc(C(=O)N2CCN(c3ccc(NC(=O)c4cccs4)cc3)CC2)cc1 | active: 11.6 µM | 
13 | CC(=O)Nc1ccc2nc(NC(=O)c3ccc([N+](=O)[O-])o3)sc2c1 | active: 20.6 µM | 
14 | Cc1[nH]n(-c2ccc(F)cc2)c(=O)c1C=Nc1ccc(S(=O)(=O)N(C)C)cc1 | inconclusive: 1.84 µM [inhibitor, partial curve, poor fit] | 
15 | CC(OC(=O)Cn1cnc2c1c(=O)n(C)c(=O)n2C)C(=O)N(C)c1ccccc1 (stereo not given) |  | inactive: -18.2%
16 | Cc1ccc2cc(C#N)c(SCC(=O)NCC3CCCO3)nc2c1 (stereo not given) |  | inactive: 14.9%
17 | Cc1cccc(CCNC(=O)CCCOc2cc(=O)n(C)c3ccccc23)c1 | inconclusive: 16.4 µM [activator, partial curve] | 
18 | CCn1c(CC(=O)Nc2ccc(OC)cc2)nnc1SCC(=O)N1CCOCC1 |  | inactive: 18.6%
19 | CCN(CC)CCN(C(=O)CCOc1ccccc1)c1nc2c(F)cc(F)cc2s1 |  | inactive: 21.1%
20 | O=C(Nc1ccc(C(F)(F)F)cc1)C1CCCCN1S(=O)(=O)c1ccccc1 (stereo not given) |  | inactive: -4.46%
21 | COc1ccc(OCC(=O)NCCNC(=O)c2cccnc2)cc1 |  | inactive: -5.78%
22 | COc1ccc(C2=NOC(Cn3nc(C(=O)NCc4cccc(Br)c4)cc3-c3ccccc3)C2)cc1 (stereo not given) | inconclusive: 29.1 µM [inhibitor, single point] | 
23 | COc1cc(C(=O)N/C(=C\c2cn(C)c3ccccc23)C(=O)NCCCO)cc(OC)c1OC | inconclusive: 0.82 µM [inhibitor, full curve, poor fit] | 
24 | CCN(CC)c1nc(-c2ccccn2)nc(-c2ccccc2)c1C#N | active: 11.6 µM | 

Row | SMILES | Potency | activity change, negative = inhibition
25 | O=C(OCC(=O)N1CCOCC1)c1cc(=O)[nH]c2ccccc12 | inconclusive: 20.6 µM [activator, partial curve, poor fit] | 
26 | CC(C)c1ccc(NC(=O)CSc2nc(=O)n(CCCN3CCOCC3)c3c2CCC3)cc1 | inconclusive: 9.2 µM [inhibitor, partial curve] | 
27 | Cc1[nH]c2ccccc2c1C(=O)CSc1nc2ccccc2c(=O)n1CCCN1CCOCC1 | inconclusive: 16.4 µM [inhibitor, partial curve] | 
28 | Cc1nn(-c2ccc(Br)cc2)c(=O)c2ccccc12 | inconclusive: 14.6 µM [activator, partial curve] | 
29 | CCOC(=O)C1CCN(c2nnc(N3CCCC3=O)s2)CC1 | inconclusive: 16.4 µM [activator, partial curve] | 
30 | CCCCc1nc2cc(C(=O)N3CCC(O)CC3)ccc2o1 | inconclusive: 2.06 µM [activator, partial curve] | 
31 | CCOc1cc(/C=C2\C(=O)ON=C2C)ccc1OCc1ccccc1 | inconclusive: 20.6 µM [inhibitor, partial curve] | 
32 | COc1ccc(OCc2nc(N)nc(Nc3ccccc3OC)n2)cc1 |  | inactive: 0.322%
33 | Cc1csc(NC(=O)CCc2c(C)nc3cc(-c4cccc(F)c4)nn3c2C)n1 | inconclusive: 29.1 µM [inhibitor, single point] | 
34 | CCC(CC)C(=O)Nc1cc(OC)c(OC)cc1C(=O)O |  | inactive: 5.33%
35 | Cc1nc(SCc2cccnc2)[nH]c(=O)c1C | inconclusive: 29.1 µM [activator, single point] | 
36 | CCCC(C)C(=O)Nc1cc([N+](=O)[O-])ccc1F (stereo not given) | inconclusive: 0.0046 µM [inhibitor, full curve, poor fit] | 
37 | CCOc1ccc(C(=O)N[C@H](C(=O)Nc2cccc(S(=O)(=O)N3CCOCC3)c2)C(C)C)cc1 | inconclusive: 23.1 µM [inhibitor, single point] | 
38 | O=C1N/C(=C\c2ccccc2)C(O)=C1C=NCc1ccccc1 | inconclusive: 14.6 µM [activator, partial curve] | 
39 | C/C(=N\Nc1nc2ccccc2[nH]1)c1ccc(N2CCOCC2)cc1 | inconclusive: 6.51 µM [activator, single point] | 
40 | COc1cc2c(cc1NC(=O)COC(=O)c1ccc(C(C)(C)C)cc1)oc1ccccc12 | inconclusive: 23.1 µM [activator, partial curve, poor fit] | 
41 | O=C(Nc1cccc([N+](=O)[O-])c1)c1ccc2c(c1)OCO2 | inconclusive: 16.4 µM [activator, partial curve] | 
42 | COC(=O)c1ccccc1NC(=S)N(Cc1ccc2c(c1)OCO2)Cc1cc2cccc(C)c2[nH]c1=O | active: 11.6 µM | 
43 | CCOC(=O)c1cc2n(c1C)-c1ccccc1C2=O | inconclusive: 25.9 µM [activator, single point] | 
44 | Cc1c(Cl)cccc1NC(=O)c1ccc(OCC(=O)NCc2ccccc2)cc1 |  | inactive: 3.09%
45 | CCN(CC)CCCN(Cc1cc2cc3c(cc2[nH]c1=O)OCO3)C(=S)NC |  | inactive: -4.34%
46 | O=C(CSc1nc2ccccc2o1)Nc1ccc(Cl)cc1 | inconclusive: 29.1 µM [activator, partial curve, poor fit] | 
47 | O=C(Cn1cccc1C(=O)c1ccccc1)NCc1ccccc1 | inconclusive: 20.6 µM [activator, single point] | 
48 | CCc1ccc(OCc2cnc(Cl)s2)cc1 | inconclusive: 20.6 µM [activator, partial curve] | 

Row | SMILES | Potency | activity change, negative = inhibition
49 | Cc1cccc(NS(=O)(=O)Cc2ccccc2)c1C | inconclusive: 22.4 µM [activator, partial curve, poor fit] | 
50 | O=[N+]([O-])c1ccccc1OCC(O)CNC1CCCC1 (stereo not given) |  | inactive: 2%
51 | O=C(Cn1nnc(-c2ccccc2NC(=O)c2ccccc2F)n1)NC1CCCC1 |  | inactive: 19%
52 | COc1ccc(S(=O)(=O)N2CCOCC2)cc1C(=O)N1CCCCC1 | inconclusive: 32.6 µM [activator, partial curve, poor fit] | 
53 | CCOc1ccc(S(=O)(=O)NCc2ccncc2)cc1NC(=O)c1ccccc1 | active: 4.11 µM | 
54 | O=C1NN(c2ccccc2)C(=O)/C1=C/c1coc2ccccc2c1=O | inconclusive: 3.26 µM [activator, full curve] | 
55 | COc1ccc(C(=O)COC(=O)c2nc3nccc(C)n3n2)cc1F |  | inactive: 17.1%
56 | Cc1ccc(-n2cc(CNCC3CC(=O)N(C4CC4)C3)c(-c3cccc(C)c3)n2)cc1 (stereo not given) | inconclusive: 20.6 µM [inhibitor, single point] | 
57 | COc1ccc2c(CC(=O)Nc3nccs3)coc2c1 | inconclusive: 20.6 µM [activator, partial curve] | 
58 | Cc1ccc(C(=O)CNc2ccc(F)cc2)cc1 | inconclusive: 18.4 µM [activator, partial curve] | 
59 | COc1ccccc1CCC(=O)N1CCN(S(=O)(=O)c2cc(C(F)(F)F)ccc2Cl)CC1 | inconclusive: 11.6 µM [inhibitor, partial curve, poor fit] | 
60 | Cc1ccc(S(=O)(=O)CC(=O)N(CCCN(C)C)c2nc3ccc(C)cc3s2)cc1 | inconclusive: 25.9 µM [activator, single point] | 
61 | CCNS(=O)(=O)c1ccc(CCC(=O)N2CCCC2)cc1 |  | inactive: -1.88%
62 | O=C1NC2(Nc3ccccc31)C(=O)Nc1ccccc12 (stereo not given) | inconclusive: 23.1 µM [activator, single point] | 
63 | Cc1cccc(-n2ccc(=O)c(C(=O)Nc3ccc(S(=O)(=O)N4CCOCC4)cc3)n2)c1 |  | inactive: -11.8%
64 | CC(=O)c1cccc(NC(=O)c2c(C)nn(-c3ccccc3)c2Cl)c1 | inconclusive: 29.1 µM [inhibitor, single point] | 
65 | COCCNC(=O)c1c(N)sc2c1CCCC2 | inconclusive: 16.4 µM [inhibitor, partial curve, poor fit] | 
66 | CCOC(=O)CSc1nc(C)c2cc(OC)ccc2n1 | inconclusive: 18.4 µM [activator, partial curve] | 
67 | COC(=O)C(Cc1ccccc1)NC(=O)CCCC(=O)NCc1cccc(OC)c1 (stereo not given) | inconclusive: 17.8 µM [inhibitor, single point] | 
68 | CCOc1ccc(OCc2ccc(C(=O)NN)o2)cc1 | inconclusive: 2.59 µM [activator, partial curve] | 
69 | Cc1ccc(C)c(S(=O)(=O)Nc2ccc3cn[nH]c3c2)c1 |  | inactive: -2.64%
70 | O=C(N/N=C/c1ccc([N+](=O)[O-])o1)c1cc2ccccc2o1 | inconclusive: 29.1 µM [inhibitor, single point] | 
